Measurements reported in article PMC10155312.
Results are given in words; binding and its absence hold for the method and conditions named. Binding seen in cells or lysates may run through a third protein. Some results given as binding are weak or reduced against the parent protein; the word gives no strength.

Protein sequences, listed by entry. Tags and fused reporters are not part of them.
UniProt Q9DCJ1: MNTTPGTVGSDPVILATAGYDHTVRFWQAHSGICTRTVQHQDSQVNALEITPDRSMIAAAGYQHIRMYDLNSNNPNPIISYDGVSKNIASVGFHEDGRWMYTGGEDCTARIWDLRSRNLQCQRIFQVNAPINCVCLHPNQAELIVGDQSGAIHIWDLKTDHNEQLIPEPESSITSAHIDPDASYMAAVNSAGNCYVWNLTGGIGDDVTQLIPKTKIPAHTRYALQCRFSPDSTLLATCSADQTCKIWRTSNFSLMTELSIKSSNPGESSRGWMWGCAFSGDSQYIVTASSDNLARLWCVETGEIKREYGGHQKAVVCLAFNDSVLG

Columns and labels:
[1] = target: T1, Ufm1-specific ligase 1 (mouse (endogenous in mouse liver)) (UniProt Q8CCJ3); assay: co-IP; lysate of fresh liver tissue of 2-month-old wild-type mice (1500 ug total protein, Pierce IP Lysis Buffer with protease inhibitors); antibodies against Ufl1, Ufbp1 or GβL, protein A/G plus agarose beads overnight at 4 °C; six washes in lysis buffer; western blot; IgG as negative control
T1 sequence: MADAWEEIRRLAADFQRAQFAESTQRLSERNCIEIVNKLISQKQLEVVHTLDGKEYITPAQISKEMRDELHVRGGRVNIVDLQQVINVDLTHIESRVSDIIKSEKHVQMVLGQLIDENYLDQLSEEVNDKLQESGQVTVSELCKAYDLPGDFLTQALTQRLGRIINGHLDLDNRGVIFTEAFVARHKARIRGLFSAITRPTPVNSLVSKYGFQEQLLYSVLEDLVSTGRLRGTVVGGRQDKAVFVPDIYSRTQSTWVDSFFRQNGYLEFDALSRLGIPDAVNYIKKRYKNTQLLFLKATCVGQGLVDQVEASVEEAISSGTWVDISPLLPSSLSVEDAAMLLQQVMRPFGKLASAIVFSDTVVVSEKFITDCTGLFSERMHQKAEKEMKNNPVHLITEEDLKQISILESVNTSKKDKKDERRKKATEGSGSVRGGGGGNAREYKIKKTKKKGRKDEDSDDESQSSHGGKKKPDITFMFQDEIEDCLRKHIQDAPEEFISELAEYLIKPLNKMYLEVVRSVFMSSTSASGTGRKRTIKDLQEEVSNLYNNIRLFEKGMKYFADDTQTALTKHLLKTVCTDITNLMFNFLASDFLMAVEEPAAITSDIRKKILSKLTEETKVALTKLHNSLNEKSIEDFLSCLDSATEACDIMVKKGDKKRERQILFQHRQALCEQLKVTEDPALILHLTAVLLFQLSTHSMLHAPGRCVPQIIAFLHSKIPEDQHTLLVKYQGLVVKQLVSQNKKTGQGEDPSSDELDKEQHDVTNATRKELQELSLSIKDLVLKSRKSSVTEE

[2] = target: T2, Ufm1-binding protein 1 (mouse (endogenous in mouse liver)) (UniProt Q80WW9); assay: as above
T2 sequence: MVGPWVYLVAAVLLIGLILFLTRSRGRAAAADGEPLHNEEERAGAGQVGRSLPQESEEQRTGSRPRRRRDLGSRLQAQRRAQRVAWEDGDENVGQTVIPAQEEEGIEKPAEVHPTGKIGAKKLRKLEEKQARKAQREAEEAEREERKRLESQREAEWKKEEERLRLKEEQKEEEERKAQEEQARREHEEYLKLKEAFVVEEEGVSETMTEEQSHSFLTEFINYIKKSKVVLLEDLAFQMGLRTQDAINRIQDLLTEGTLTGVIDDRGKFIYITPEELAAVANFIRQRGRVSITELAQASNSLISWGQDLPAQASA

binding [1]: binds
binding [2]: binds
Substance: GβL (from UniProt Q9DCJ1 1-326)
